Results from one PubChem assay

The results are deposited in PubChem (AID1053133; Broad Institute, 2014).

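Plate-reader measure of the Venus reporter marking one vaccinia stage in infected cells (the cell line is not named here); read time unknown. The test concentration is not given here. Percent change in Venus reporter signal; lower (more negative) values mean stronger inhibition of that viral stage.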

Values are in %. How 0% and 100% were set is not given here. Common to all entries: measured here: Venus reporter, other viral stage. Part of the compounds only, not a random draw; the main read-out is not listed here.

| # | structure | activity change (Venus) (%) |
|---|---|---|
| 1 | `C[C@H](CO)N1C[C@H](C)[C@H](CN(C)Cc2ccc(F)cc2)Oc2ncc(-c3cccc(C(F)(F)F)c3)cc2C1=O` | -42.19 |
| 2 | `CO[C@H]1CN(C)C(=O)c2ccc(NC(=O)Nc3cc(Cl)cc(Cl)c3)cc2OC[C@H](C)NC[C@H]1C` | -82.91 |
| 3 | `C[C@@H]1CN([C@@H](C)CO)C(=O)c2cccc(NC(=O)c3ccc(-c4nccs4)cc3)c2O[C@H]1CN(C)Cc1ccccc1` | -37.33 |
| 4 | `CC(C)NC(=O)Nc1ccc2c(c1)C(=O)N([C@@H](C)CO)C[C@@H](C)[C@@H](CN(C)Cc1ccc(C(F)(F)F)cc1)OCCCC[C@H](C)O2` | -44.56 |
| 5 | `O=C(CC1CC1)N1CC(=O)N2[C@H](CO)[C@H](c3ccc(C#Cc4ccc(F)cc4)cc3)[C@H]2C1` | -50.62 |
| 6 | `CC(C)CC#Cc1ccc2c(c1)O[C@@H](CN(C)C(=O)c1cccc(F)c1)[C@H](C)CN([C@@H](C)CO)S2(=O)=O` | -76.52 |
| 7 | `C[C@@H]1CN([C@@H](C)CO)C(=O)Cc2cc(NC(=O)CCC(F)(F)F)ccc2O[C@H]1CN(C)Cc1ccc(C(F)(F)F)cc1` | -43.73 |
| 8 | `COc1ccc(S(=O)(=O)Nc2ccc3c(c2)C(=O)N([C@H](C)CO)C[C@@H](C)[C@H](CN(C)C(=O)Nc2ccc(C(F)(F)F)cc2)OCCCC[C@H](C)O3)cc1` | -26.35 |
| 9 | `Cc1noc(C)c1S(=O)(=O)Nc1ccc2c(c1)C(=O)N([C@@H](C)CO)C[C@@H](C)[C@H](CN(C)S(=O)(=O)c1cccs1)O2` | 3.562 |
| 10 | `C[C@@H]1CN([C@@H](C)CO)C(=O)c2cc(C#Cc3ccccc3F)cnc2O[C@H]1CN(C)C(=O)C1CCCCC1` | -60.9 |
| 11 | `Cc1noc(C)c1S(=O)(=O)Nc1ccc2c(c1)C(=O)N([C@@H](C)CO)C[C@H](C)[C@H](CN(C)Cc1ccc(C(F)(F)F)cc1)OCCCC[C@H](C)O2` | -72.3 |
| 12 | `COc1ccc(NC(=O)N(C)C[C@H]2Oc3cc(C#CCC(C)C)ccc3S(=O)(=O)N([C@@H](C)CO)C[C@H]2C)cc1` | -62.25 |
| 13 | `O=C(Nc1ccc(F)cc1)N1CC(=O)N2[C@@H](CO)[C@H](c3ccc(-c4ccc(F)cc4)cc3)[C@@H]2C1` | -74.62 |
| 14 | `C[C@H]1CN([C@@H](C)CO)C(=O)c2cccc(NC(=O)Nc3ccc(C(F)(F)F)cc3)c2O[C@@H]1CN(C)C(=O)Nc1ccccc1` | -19.32 |
| 15 | `Cc1noc(C)c1NC(=O)N(C)C[C@@H]1Oc2cc(C#CCC3CCCC3)ccc2S(=O)(=O)N([C@@H](C)CO)C[C@H]1C` | -34.62 |
| 16 | `Cc1cccc(CN(C)C[C@@H]2Oc3ncc(-c4cccc(F)c4)cc3C(=O)N([C@H](C)CO)C[C@@H]2C)c1` | -28.78 |
| 17 | `COc1ccc(C#Cc2ccc3c(c2)[C@@H]2[C@@H](CCN2C(=O)CN2CCOCC2)[C@H](CO)N3C)cc1` | -19.54 |
| 18 | `CCCNC(=O)N1CC2(CCN(CC3CCCC3)CC2)c2c(n(C)c3cc(OC)ccc23)[C@H]1CO` | -22.62 |
| 19 | `COc1ccc2c3c([nH]c2c1)[C@H](CO)N(Cc1ccccc1F)CC31CCN(CC2CC2)CC1` | -60.15 |
| 20 | `C[C@H](CO)N1C[C@H](C)[C@H](CN(C)C(=O)Nc2cccc3ccccc23)Oc2ncc(-c3cccc(C(F)(F)F)c3)cc2C1=O` | -66.44 |
| 21 | `COc1ccc(S(=O)(=O)Nc2ccc3c(c2)C(=O)N([C@H](C)CO)C[C@@H](C)[C@H](CN(C)S(=O)(=O)c2ccccc2)OCCCC[C@H](C)O3)cc1` | -26.31 |
| 22 | `COc1ccc(NC(=O)N(C)C[C@@H]2Oc3ncc(C#Cc4cccc(F)c4)cc3C(=O)N([C@H](C)CO)C[C@@H]2C)cc1` | -34.02 |
| 23 | `C[C@@H]1CCCCO[C@H](CN(C)Cc2ccccc2)[C@H](C)CN([C@H](C)CO)C(=O)c2cc(NC(=O)Nc3ccccc3)ccc2O1` | -59.42 |
| 24 | `COc1ccc(CN(C)C[C@H]2Oc3c(NC(=O)CCCCCC(=O)Nc4ccccc4N)cccc3C(=O)N([C@@H](C)CO)C[C@@H]2C)cc1` | -27.89 |
| 25 | `C[C@@H]1CN([C@H](C)CO)C(=O)CCCn2nncc2CO[C@@H]1CN(C)Cc1ccc(Cl)c(Cl)c1` | -46.72 |
| 26 | `O=C(C1CCC1)N1CCCCN2[C@H](CO)[C@@H](c3ccc(C#CC4CCCC4)cc3)[C@@H]2C1` | -38.06 |
| 27 | `COc1cccc(-c2ccc3c(c2)[C@@H]2[C@@H](CCN2S(=O)(=O)c2ccccc2F)[C@@H](CO)N3)c1` | -51.81 |
| 28 | `C[C@H](CO)N1C[C@H](C)[C@H](CN(C)Cc2ccc(C(F)(F)F)cc2)OCCCC[C@H](C)Oc2ccc(NC(=O)NC3CCCCC3)cc2C1=O` | -22.53 |
| 29 | `C[C@H]1CN([C@@H](C)CO)C(=O)c2cccc(NC(=O)CCCCCC(=O)Nc3ccccc3N)c2O[C@H]1CN(C)Cc1ccc(Cl)c(Cl)c1` | -25.62 |
| 30 | `C[C@H]1CN([C@@H](C)CO)C(=O)c2cccc(NS(=O)(=O)c3ccc(Cl)cc3)c2O[C@H]1CN(C)Cc1ccc(C(F)(F)F)cc1` | -31.53 |
| 31 | `COc1ccc(NC(=O)N2CCCCN3[C@H](CO)[C@@H](c4ccc(C#Cc5ccccc5)cc4)[C@H]3C2)cc1` | -42.61 |
| 32 | `C[C@@H]1CN([C@@H](C)CO)C(=O)Cc2cc(NC(=O)C3CCCCC3)ccc2O[C@@H]1CN(C)Cc1ccc(Cl)c(Cl)c1` | -27.13 |

Some entries from above, unchanged:

{"structure": "O=C(Nc1ccc(F)cc1)N1CC(=O)N2[C@@H](CO)[C@H](c3ccc(-c4ccc(F)cc4)cc3)[C@@H]2C1", "activity change (Venus) (%)": "-74.62"}
{"structure": "C[C@H]1CN([C@@H](C)CO)C(=O)c2cccc(NC(=O)Nc3ccc(C(F)(F)F)cc3)c2O[C@@H]1CN(C)C(=O)Nc1ccccc1", "activity change (Venus) (%)": "-19.32"}